# The list shows a part of the results.
# Molecular target: T1, OsSMF1 (Oryza sativa, UniProt Q6ZLB0 1-436)
# T1 sequence: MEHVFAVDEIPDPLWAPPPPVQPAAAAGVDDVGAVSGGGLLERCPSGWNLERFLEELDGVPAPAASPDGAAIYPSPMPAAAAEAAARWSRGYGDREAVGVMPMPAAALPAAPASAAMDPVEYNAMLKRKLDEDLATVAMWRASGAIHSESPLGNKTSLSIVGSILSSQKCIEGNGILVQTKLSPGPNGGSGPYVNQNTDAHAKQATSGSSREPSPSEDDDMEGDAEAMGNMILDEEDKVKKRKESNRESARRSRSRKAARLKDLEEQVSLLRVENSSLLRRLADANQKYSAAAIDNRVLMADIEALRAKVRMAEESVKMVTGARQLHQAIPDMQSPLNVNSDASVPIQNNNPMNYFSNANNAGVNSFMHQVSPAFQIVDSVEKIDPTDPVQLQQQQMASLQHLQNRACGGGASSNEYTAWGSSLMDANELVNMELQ
# Experiment: protein-binding microarray (RPBM); PBS, 2% BSA, 51.3 ng/ul salmon testes DNA, 50 uM zinc acetate, 200 nM TF, 25 C, 1 h; high values mean tight binding
# Details: protein: recombinant; tags: N-terminal polyhistidine and DsRed monomer fusion (pET32a); chain copies: 2; label: CyDye5-dUTP incorporated in the synthesized complementary strand; 3' TTTTT single-stranded linker to array surface; dsDNA, one strand shown
# Summary of the method: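 The binding signal is fluorescence intensity per feature, in arbitrary units, read on an Axon 4000B scanner. Polyhistidine- and DsRed-tagged transcription factors (N-terminal fusions) from E. coli BL21-CodonPlus were purified on Ni–NTA and applied at 200 nM for 1 h at 25 °C to a double-stranded, BSA-blocked custom Agilent array in buffer with 50 µM zinc acetate.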
row,Sequence,binding signal
1,AAAACATTTGGAAAATAATTAGAATAGTTGTTTGACATGACGGAGTCACCTAGTGCAG,5080 fluorescence intensity (a.u.)
2,TGGTTGAGAAATGTTATGTCGTTGCACAACACCCATTTGTCGGAGTCACCTAGTGCAG,3410 fluorescence intensity (a.u.)
3,CACACACCGACATCGCCAACACACAAACCCAGGAGAAGTCCGGAGTCACCTAGTGCAG,3400 fluorescence intensity (a.u.)
4,GACGGCTCAGCGTGAGGATGATGACGCGGCGCGTGATAGGCGGAGTCACCTAGTGCAG,13300 fluorescence intensity (a.u.)
5,GCACATTAATCGAAGCTAACCACGTGGTGATTAGATAGTACGGAGTCACCTAGTGCAG,5380 fluorescence intensity (a.u.)
6,GGCGGTGGACGCGTACGTGCTGGCGCCGCTGCAGCTGGCGCGGAGTCACCTAGTGCAG,7570 fluorescence intensity (a.u.)
7,CTGTTTTCCCCTTCTTGGTAGCGCGTACGTCGTACTACTTCGGAGTCACCTAGTGCAG,3240 fluorescence intensity (a.u.)
8,CCTCCTCCCCTCTCCACGTCACTGCGCGGTGGGCCCGCGCCGGAGTCACCTAGTGCAG,24200 fluorescence intensity (a.u.)
9,CGTCTGCCACGCCTTCTTGAACAGTTTCCCCAATTTTCTGCGGAGTCACCTAGTGCAG,3480 fluorescence intensity (a.u.)
10,GGCTATTTTGTATCACAAATTGTCAATGTTTTAGGTTCTCCGGAGTCACCTAGTGCAG,5090 fluorescence intensity (a.u.)
11,ATGTTTTGCCTTTTATAATTATACGTGTGTAAATCATATGCGGAGTCACCTAGTGCAG,3460 fluorescence intensity (a.u.)
12,AAAATAGTCTCCACGTTGGTGAACTCGTTGCTTGATGGGACGGAGTCACCTAGTGCAG,3870 fluorescence intensity (a.u.)
13,GAACATTCAAAATGACTCACCATGCAGAACACAGCGCAGTCGGAGTCACCTAGTGCAG,7710 fluorescence intensity (a.u.)
14,GGCGACCTCTCCTTCTCCGATGGTGGCCTATCGCCTCTGTCGGAGTCACCTAGTGCAG,3550 fluorescence intensity (a.u.)
15,TTAAATGGTCATTCCTGTGTTTTACAATCATATATCTTACCGGAGTCACCTAGTGCAG,3990 fluorescence intensity (a.u.)
16,AGGTAATTGAGTATGCAGTAAGCAGTTGATGTGTATCTGTCGGAGTCACCTAGTGCAG,3860 fluorescence intensity (a.u.)
17,TTCCGTTTCTAGGAGTAGCATGACTCAGCGAGCAATCCGTCGGAGTCACCTAGTGCAG,7760 fluorescence intensity (a.u.)
18,ACCCAGTGCAGCTCGGGGACCGTACGACCGATCTGGCACGCGGAGTCACCTAGTGCAG,3660 fluorescence intensity (a.u.)
19,GTGTGTGTGTGGCGTCACTCCATCGTTTTCCCCTGGGCGGCGGAGTCACCTAGTGCAG,8910 fluorescence intensity (a.u.)
20,CACTCGCTCGCCACACACCATCACCCATGCGCGCTAATTACGGAGTCACCTAGTGCAG,3710 fluorescence intensity (a.u.)
21,CGACCTCGTCCTCCACCCCACCCATCTCCGACGCCGCGGACGGAGTCACCTAGTGCAG,4600 fluorescence intensity (a.u.)

# 2 entries drawn at random from those above, as already listed:
row,Sequence,binding signal
9,CGTCTGCCACGCCTTCTTGAACAGTTTCCCCAATTTTCTGCGGAGTCACCTAGTGCAG,3480 fluorescence intensity (a.u.)
11,ATGTTTTGCCTTTTATAATTATACGTGTGTAAATCATATGCGGAGTCACCTAGTGCAG,3460 fluorescence intensity (a.u.)

# Continuation.

row,Sequence,binding signal
1,GTGGTGTGCATGCAGCAGCAAGCATATCGCGCACACGACGCGGAGTCACCTAGTGCAG,3880 fluorescence intensity (a.u.)
2,TTTAAAGTGAAAATATTATGTATGACTTGGTTCACGATAACGGAGTCACCTAGTGCAG,3260 fluorescence intensity (a.u.)
3,TGCACCACCTCCTGTACTGTTTCTTCCTTCAACCATCTAGCGGAGTCACCTAGTGCAG,3600 fluorescence intensity (a.u.)
4,CTTTCCCTCAGCTCTGTCACCTCTCTCGCGCGTCGGCGGCCGGAGTCACCTAGTGCAG,3590 fluorescence intensity (a.u.)
5,CTCCTGAAGTTACTAGCACGTCATTTTGAGCTTTACTCTACGGAGTCACCTAGTGCAG,3620 fluorescence intensity (a.u.)
6,CTAAATCCTCGGGTCCACATGTCATACTCAGCCTCTTTACCGGAGTCACCTAGTGCAG,5460 fluorescence intensity (a.u.)
7,GATTGCTTTGAGAGGTACTAGTACAGCATTTTAGCATAGACGGAGTCACCTAGTGCAG,19200 fluorescence intensity (a.u.)
8,AAGGATATTTGCCTGACCAGACGTAAGCCTGAGACCAGCCCGGAGTCACCTAGTGCAG,3140 fluorescence intensity (a.u.)
9,GGAGGTCGGTCGGCGTTCGGTGGTGGCTGCGGCGACCCGACGGAGTCACCTAGTGCAG,3760 fluorescence intensity (a.u.)
10,CAGTCCAGTCAAGAACCGACTGGATGAGCTGTCAGCCGTGCGGAGTCACCTAGTGCAG,4560 fluorescence intensity (a.u.)
11,ACACGCGGTGAAGGTGGTGGCGAAGTCGTCATAGCCTTCACGGAGTCACCTAGTGCAG,3250 fluorescence intensity (a.u.)
12,ATCGGTACCGAACTAGGCCCACCTTGCTTATGTGGCAAACCGGAGTCACCTAGTGCAG,9280 fluorescence intensity (a.u.)
13,TTATTCATACATGTCACTGCCAGGCTGCTGTCTACTTCTTCGGAGTCACCTAGTGCAG,4950 fluorescence intensity (a.u.)
14,GACTAGCTGGCCAGCGGCCTAGCGTTGTACTCTATCCATCCGGAGTCACCTAGTGCAG,10100 fluorescence intensity (a.u.)
15,CACCTATAAACGCTCCTCGCCATCCCACTGACGCCGCCTTCGGAGTCACCTAGTGCAG,3810 fluorescence intensity (a.u.)
16,GTCGTGGAGGCCGGCACGCACGACGAGCTCTTGGGGATGGCGGAGTCACCTAGTGCAG,3600 fluorescence intensity (a.u.)
17,GTAGAAAACTTTGCAGACGTGTACATAAACACTGCGATAGCGGAGTCACCTAGTGCAG,4950 fluorescence intensity (a.u.)
18,GTATTCTGATCATGCGGCTATCCTAGTACTCTCGAGCACCCGGAGTCACCTAGTGCAG,23900 fluorescence intensity (a.u.)
19,TCCCATTGATTTGATCCAGCTAATTAATTAATTCGATCCACGGAGTCACCTAGTGCAG,3460 fluorescence intensity (a.u.)
20,ACTGGCTTGAAATTAGCTAAAAGATGACAAAGCAGTTGGCCGGAGTCACCTAGTGCAG,4570 fluorescence intensity (a.u.)
21,AGCCCCGCCACCTCAAACAGTTTGGTAAACCCTAGCCATGCGGAGTCACCTAGTGCAG,3300 fluorescence intensity (a.u.)
